The target in one data set is Cytochrome P450 2D6 (Homo sapiens, UniProt P10635). As to the kind of experiment: Inhibition of CYP2D6 (unknown origin).
Data set [1] is described as follows: Lipophilicity, logP of the compound. Particulars: octanol/water.
In a further data set the target is Cytochrome P450 3A4 (Homo sapiens, UniProt P08684). As to the kind of experiment: Inhibition of CYP3A4 (unknown origin).
The target in the next data set is Cytochrome P450 2C9 (Homo sapiens, UniProt P11712). Description: Inhibition of CYP2C9 (unknown origin).
A short description of data set [2]: Thermodynamic solubility of the compound.

The chains behind the UniProt entries cited, without tags or fusion partners.
UniProt P10635, whole entry: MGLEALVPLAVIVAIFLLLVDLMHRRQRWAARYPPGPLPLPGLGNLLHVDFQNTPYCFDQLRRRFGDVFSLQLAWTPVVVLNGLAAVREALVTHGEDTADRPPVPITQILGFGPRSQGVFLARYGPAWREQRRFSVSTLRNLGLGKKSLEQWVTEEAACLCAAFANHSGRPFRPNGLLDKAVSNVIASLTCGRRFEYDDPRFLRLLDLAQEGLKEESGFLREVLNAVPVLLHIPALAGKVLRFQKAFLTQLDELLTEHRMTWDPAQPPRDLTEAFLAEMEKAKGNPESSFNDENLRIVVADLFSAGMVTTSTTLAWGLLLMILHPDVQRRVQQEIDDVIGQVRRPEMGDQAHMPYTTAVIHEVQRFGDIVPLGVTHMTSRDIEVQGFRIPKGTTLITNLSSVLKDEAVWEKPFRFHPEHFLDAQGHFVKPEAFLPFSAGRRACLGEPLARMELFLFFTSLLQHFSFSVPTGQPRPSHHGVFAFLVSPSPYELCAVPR
UniProt P08684, whole entry: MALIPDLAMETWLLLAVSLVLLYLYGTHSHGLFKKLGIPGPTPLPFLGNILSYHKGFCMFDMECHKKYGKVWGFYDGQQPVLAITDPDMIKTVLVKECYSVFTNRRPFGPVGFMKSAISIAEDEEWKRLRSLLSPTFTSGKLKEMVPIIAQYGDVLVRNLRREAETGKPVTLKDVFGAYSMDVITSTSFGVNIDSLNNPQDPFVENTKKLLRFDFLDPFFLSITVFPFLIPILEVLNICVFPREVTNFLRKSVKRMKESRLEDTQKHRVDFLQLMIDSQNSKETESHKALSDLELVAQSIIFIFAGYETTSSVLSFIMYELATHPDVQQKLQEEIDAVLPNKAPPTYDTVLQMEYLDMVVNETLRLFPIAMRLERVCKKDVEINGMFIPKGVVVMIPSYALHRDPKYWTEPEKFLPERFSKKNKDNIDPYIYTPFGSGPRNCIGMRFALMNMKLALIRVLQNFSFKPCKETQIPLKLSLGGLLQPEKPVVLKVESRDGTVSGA
UniProt P11712, whole entry: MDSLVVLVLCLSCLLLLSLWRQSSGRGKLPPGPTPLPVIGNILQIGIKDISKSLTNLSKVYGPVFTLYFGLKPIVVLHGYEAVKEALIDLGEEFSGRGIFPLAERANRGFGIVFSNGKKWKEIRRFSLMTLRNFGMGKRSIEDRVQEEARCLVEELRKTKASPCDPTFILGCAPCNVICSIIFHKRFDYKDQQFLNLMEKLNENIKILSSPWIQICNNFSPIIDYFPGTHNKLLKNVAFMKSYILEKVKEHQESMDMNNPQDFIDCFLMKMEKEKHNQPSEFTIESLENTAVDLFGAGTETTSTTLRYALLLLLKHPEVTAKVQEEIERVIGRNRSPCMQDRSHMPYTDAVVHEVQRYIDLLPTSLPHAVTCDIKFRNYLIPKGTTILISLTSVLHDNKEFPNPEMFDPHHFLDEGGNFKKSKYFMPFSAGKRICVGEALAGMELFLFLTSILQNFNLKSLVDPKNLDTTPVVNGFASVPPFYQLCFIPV

From ChEMBL document CHEMBL4699655, “Optimization of the In Vivo Potency of Pyrazolopyrimidine MALT1 Protease Inhibitors by Reducing Metabolism and Increasing Potency in Whole Blood” (J Med Chem, 2020) come the findings set out here.

In brackets after ≈: the same amount, converted by molar mass.

For `CO[C@@H](C)c1c(NC(=O)Nc2ccnc(C(F)(F)F)c2)cnc2cc(Cl)nn12`, the IC50 on Cytochrome P450 2D6, against Cytochrome P450 3A4 and against Cytochrome P450 2C9 was > 20 µM throughout. The logP in data set [1] worked out at 3.6. In data set [2], this compound had a thermodynamic solubility of 4 µg/mL (≈ 9.64 µM).
